# Assay results taken from the supplement of paper PMC7666118.
# Chains of the proteins cited; added tags and fusions are not shown. Lines headed by an entry give the natural chain unless they say otherwise; changes in a name come on top.
# UniProt Q8WUD1: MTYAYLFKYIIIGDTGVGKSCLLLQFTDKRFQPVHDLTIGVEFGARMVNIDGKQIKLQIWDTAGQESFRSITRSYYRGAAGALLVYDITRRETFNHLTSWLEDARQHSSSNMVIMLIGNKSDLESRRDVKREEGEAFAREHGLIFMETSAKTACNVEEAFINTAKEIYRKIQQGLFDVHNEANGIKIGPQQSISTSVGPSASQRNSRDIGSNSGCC
# UniProt P51151: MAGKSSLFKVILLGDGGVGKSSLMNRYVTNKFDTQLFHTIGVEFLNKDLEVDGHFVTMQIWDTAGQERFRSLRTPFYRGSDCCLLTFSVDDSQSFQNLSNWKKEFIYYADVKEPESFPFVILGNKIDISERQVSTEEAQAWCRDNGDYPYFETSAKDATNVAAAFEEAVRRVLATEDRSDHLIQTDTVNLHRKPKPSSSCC
# UniProt Q15291, whole entry: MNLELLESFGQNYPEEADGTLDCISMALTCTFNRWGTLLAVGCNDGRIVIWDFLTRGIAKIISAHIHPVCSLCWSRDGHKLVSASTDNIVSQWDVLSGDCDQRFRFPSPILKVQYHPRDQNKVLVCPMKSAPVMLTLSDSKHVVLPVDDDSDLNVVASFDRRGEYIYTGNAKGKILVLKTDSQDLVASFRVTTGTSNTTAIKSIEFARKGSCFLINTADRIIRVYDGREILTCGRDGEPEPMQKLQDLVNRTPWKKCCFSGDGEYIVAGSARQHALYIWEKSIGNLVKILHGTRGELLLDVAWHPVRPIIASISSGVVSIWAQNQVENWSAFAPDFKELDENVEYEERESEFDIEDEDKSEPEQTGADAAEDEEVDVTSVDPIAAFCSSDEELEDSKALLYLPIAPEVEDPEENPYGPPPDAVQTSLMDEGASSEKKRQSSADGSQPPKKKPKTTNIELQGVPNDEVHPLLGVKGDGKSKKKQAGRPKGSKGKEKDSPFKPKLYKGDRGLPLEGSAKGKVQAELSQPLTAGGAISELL
# UniProt Q99633: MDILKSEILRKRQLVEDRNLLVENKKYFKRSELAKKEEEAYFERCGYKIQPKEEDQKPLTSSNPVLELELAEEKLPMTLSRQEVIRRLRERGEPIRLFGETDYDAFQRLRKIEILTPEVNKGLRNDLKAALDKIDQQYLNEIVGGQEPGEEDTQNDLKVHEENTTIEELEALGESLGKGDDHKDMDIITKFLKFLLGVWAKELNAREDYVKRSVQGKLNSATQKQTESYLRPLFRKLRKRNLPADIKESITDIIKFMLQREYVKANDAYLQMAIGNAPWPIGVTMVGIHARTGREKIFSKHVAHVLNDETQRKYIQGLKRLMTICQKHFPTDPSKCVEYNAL
# UniProt Q16401: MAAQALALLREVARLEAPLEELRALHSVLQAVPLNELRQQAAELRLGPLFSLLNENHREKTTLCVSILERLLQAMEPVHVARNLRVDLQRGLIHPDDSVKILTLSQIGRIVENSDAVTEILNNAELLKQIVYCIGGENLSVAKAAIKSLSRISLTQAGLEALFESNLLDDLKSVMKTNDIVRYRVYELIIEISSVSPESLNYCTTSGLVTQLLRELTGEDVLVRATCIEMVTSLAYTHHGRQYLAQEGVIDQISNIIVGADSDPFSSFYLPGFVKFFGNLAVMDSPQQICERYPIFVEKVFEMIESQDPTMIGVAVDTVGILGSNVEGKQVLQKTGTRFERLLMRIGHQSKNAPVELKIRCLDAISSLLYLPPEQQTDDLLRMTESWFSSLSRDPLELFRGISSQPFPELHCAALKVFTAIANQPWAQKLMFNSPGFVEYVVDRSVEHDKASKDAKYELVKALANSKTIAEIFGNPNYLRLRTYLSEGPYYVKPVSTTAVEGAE
# UniProt Q9ULZ3, whole entry: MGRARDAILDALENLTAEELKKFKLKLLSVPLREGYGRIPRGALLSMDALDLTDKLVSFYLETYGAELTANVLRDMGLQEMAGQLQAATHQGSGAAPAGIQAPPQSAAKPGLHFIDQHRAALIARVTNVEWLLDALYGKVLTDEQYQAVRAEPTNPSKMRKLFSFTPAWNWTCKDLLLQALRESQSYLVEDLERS
# UniProt P20336: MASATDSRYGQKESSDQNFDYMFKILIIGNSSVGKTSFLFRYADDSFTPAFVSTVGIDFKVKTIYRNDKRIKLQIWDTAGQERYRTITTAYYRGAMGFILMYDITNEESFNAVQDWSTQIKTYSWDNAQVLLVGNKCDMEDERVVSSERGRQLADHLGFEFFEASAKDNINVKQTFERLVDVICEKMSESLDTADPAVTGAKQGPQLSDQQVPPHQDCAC
# UniProt Q9NP72: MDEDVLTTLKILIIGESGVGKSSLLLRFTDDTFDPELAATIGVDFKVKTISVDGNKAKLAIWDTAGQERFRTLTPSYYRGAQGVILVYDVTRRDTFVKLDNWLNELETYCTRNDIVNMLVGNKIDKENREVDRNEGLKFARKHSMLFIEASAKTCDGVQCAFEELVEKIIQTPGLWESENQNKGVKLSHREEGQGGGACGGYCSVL
# UniProt P28065: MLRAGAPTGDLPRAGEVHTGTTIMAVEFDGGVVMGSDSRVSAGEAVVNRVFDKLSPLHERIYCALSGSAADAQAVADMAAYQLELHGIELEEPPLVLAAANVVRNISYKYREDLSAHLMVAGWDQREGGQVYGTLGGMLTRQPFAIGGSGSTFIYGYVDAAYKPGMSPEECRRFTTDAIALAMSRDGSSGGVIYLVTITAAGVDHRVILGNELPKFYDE
# The list shows a part of the results.
# Compound: COc1ccc(Cn2ccc3ccc(C(=O)NO)cc32)cc1
# Assay: dose-dependent thermal stabilisation call (2D-TPP, DLPTP, 10% FDR) (binary (1 = stabilised)); higher = stabilised by the compound
# Settings: system: HL-60 intact cells; concentration range 0.04-10 µM
row,Target,dose-dependent thermal stabilisation call
1,RAB2B (UniProt Q8WUD1),inactive: 0
2,RAB9A (UniProt P51151),inactive: 0
3,PRPF8 (UniProt Q6P2Q9),inactive: 0
4,RBBP5 (UniProt Q15291),inactive: 0
5,PRPF18 (UniProt Q99633),inactive: 0
6,PSMD5 (UniProt Q16401),inactive: 0
7,PYCARD (UniProt Q9ULZ3),inactive: 0
8,RAB3A (UniProt P20336),inactive: 0
9,RAB18 (UniProt Q9NP72),inactive: 0
10,PSMB9 (UniProt P28065),inactive: 0

# From entry 9 as far as 10, copied from above:
row,Target,dose-dependent thermal stabilisation call
9,RAB18 (UniProt Q9NP72),inactive: 0
10,PSMB9 (UniProt P28065),inactive: 0
